These are yes or no findings as the source states them, for the method shown. Binding seen in cells or lysates may run through a third protein. Some binding calls cover weakened binding; strength is not graded here.

Protein sequences, listed by entry. Tags and fused reporters are not part of them.
UniProt Q8BWG9: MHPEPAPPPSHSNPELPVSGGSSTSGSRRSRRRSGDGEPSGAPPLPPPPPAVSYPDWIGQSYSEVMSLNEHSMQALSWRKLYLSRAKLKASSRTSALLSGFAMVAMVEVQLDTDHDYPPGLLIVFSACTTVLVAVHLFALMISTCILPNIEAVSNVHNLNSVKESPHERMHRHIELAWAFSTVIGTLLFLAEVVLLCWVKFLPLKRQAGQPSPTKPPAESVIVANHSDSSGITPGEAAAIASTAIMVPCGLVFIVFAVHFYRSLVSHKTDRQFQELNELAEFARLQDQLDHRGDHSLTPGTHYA

The assay has as its target T1, SPCA2 (secretory pathway Ca2+-ATPase isoform 2) (mouse (endogenous in lactating mammary tissue)) (UniProt A7L9Z8).
T1 sequence: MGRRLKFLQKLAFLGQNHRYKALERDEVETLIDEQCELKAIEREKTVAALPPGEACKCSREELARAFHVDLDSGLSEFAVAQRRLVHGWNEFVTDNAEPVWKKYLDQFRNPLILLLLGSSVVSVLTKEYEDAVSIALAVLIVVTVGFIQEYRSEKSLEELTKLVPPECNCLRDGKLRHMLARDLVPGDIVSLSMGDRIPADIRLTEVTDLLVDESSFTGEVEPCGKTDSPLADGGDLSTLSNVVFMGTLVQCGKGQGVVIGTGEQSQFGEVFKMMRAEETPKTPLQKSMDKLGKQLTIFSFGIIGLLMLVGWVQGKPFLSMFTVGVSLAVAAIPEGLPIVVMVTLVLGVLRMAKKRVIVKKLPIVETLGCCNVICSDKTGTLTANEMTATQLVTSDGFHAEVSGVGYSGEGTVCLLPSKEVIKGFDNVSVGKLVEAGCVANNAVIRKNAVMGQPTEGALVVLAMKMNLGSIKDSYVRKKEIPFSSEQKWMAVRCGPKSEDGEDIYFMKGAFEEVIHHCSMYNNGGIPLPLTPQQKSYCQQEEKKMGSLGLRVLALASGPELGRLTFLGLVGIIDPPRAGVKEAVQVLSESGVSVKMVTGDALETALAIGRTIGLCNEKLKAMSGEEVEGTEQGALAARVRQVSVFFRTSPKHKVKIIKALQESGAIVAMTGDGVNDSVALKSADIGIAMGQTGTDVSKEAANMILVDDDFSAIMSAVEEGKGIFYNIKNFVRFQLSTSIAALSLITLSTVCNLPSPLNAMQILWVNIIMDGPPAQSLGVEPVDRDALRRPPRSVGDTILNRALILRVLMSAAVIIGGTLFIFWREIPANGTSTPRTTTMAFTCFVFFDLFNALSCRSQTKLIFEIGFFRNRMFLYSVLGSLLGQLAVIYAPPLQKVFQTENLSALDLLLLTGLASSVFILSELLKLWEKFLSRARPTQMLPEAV
Put plainly: co-IP; SPCA2 immunoprecipitated from lactating (Day 5) mouse mammary tissue with polyclonal rabbit anti-hSPCA2 peptide antibody, rabbit IgG as control; Orai1 detected by immunoblotting.

As for Orai1 (from UniProt Q8BWG9 1-304), the binding entry is given as “binds”.

(Values after publication PMC3696057.)
